# Experimental data reported in PubChem BioAssay AID2685 (National Center for Advancing Translational Sciences (NCATS), 2010).
# The list shows a part of the results. These are further read-outs of the screen, such as a control signal, another cell line or another target. No call is given for them. Compounds called inactive in the main read-out are mostly missing here. Words in brackets tell the shape of the fitted curve; partial curves, single points and poor fits give uncertain potencies.
# Assay: qHTS Assay for Lipid Storage Modulators in Drosophila S3 Cells;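 on cell number change: cells counted by Cell Tracker Red CMTPX staining in the red channel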
# Details: BODIPY lipid droplet fluorescence, 18-24 h; for cell number change: measured here: cell count max response, cells fed with added oleic acid
# In short: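 Laser-scanning cytometry quantifies lipid droplet accumulation (500–530 nm total intensity; droplet/cell object ratio) in oleic acid-fed (400 uM added) Drosophila S3 cells treated with a concentration series. 20 uM Triacsin C defined 100% inhibition.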
# [1] = measured here: lipid fluorescence (Fed channel) AC50, cells fed with added oleic acid
# [2] = measured here: cell number channel AC50, cells fed with added oleic acid
Structure (SMILES),cell number change [%],AC50 [1],AC50 [2]
O=C(CSC1=NS(=O)(=O)c2cc(F)ccc2N1)NCc1ccccc1Cl,-10.5,"0.731 µM [falling, full curve, poor fit]",
Cc1c(C(=O)N2CCCCC2)oc2ccc(S(=O)(=O)N3CC(C)CC(C)C3)cc12 (stereo not given),-29.1,"16.4 µM [falling, single point]",
O=C(Cn1ccc(NC(=O)OCc2ccccc2)nc1=O)NCCCN1CCCC1=O,12.7,"0.13 µM [rising, full curve, poor fit]",
N=c1c(S(=O)(=O)c2ccccc2)cc2c(=O)n3ccccc3nc2n1CC1CCCO1 (stereo not given),22.1,"0.461 µM [rising, full curve]",
CC(C)COc1ccc(C(=O)Nc2ccc(NC(=O)c3ccco3)cc2)cc1,11.5,"5.17 µM [falling, single point]",
COC(=O)c1ccccc1C(=O)N1CCCC(CCC(=O)NCc2ccc(F)c(F)c2)C1 (stereo not given),-7.32,"32.6 µM [falling, single point]",
C=CCn1c(Cc2ccc(OC)cc2)nnc1SCc1nc2ccccc2c(=O)[nH]1,5.39,"0.461 µM [rising, partial curve, poor fit]",
O=C(NCCc1ccccc1)c1ccc(-c2ccc(F)cc2)o1,-37.5,"29.1 µM [falling, single point]","29.1 µM [falling, single point]"
O=C(NCCc1cscn1)C1CCC(=O)N(Cc2ccc(Cl)cc2)C1 (stereo not given),20.5,"5.17 µM [falling, single point]",
Cn1ncc(Cl)c1C(=O)N1CCc2ccccc21,-30.5,,"18.4 µM [falling, single point]"
CC(=O)Nc1ccc(NC(=O)C(C)OC(=O)c2oc3ccccc3c2C)cc1 (stereo not given),12.2,"20.6 µM [falling, single point]",
CCCCc1c(C)c(C#N)c2nc3ccccc3n2c1NCCN(C)C,37.5,,"1.46 µM [rising, full curve]"
CN(/C(=N\S(=O)(=O)c1ccccc1)c1ccccc1)c1ccc(O)cc1,-15.2,"16.4 µM [falling, single point]",
CCCCn1c(N)c(N(CC)C(=O)c2cc(OC)cc(OC)c2)c(=O)[nH]c1=O,32.2,,"29.1 µM [rising, single point]"
O=C(Nc1cccc([N+](=O)[O-])c1)c1cccc(C(=O)Nc2cccc([N+](=O)[O-])c2)c1,-34.1,"32.6 µM [falling, single point]","25.9 µM [falling, single point]"
O=C(Nc1ccc2c(c1)CCC2)c1cnn2c1NC(c1ccco1)CC2C(F)(F)F (stereo not given),-91.3,"29.1 µM [falling, single point]","18.4 µM [falling, single point]"
Cc1ccc(/C=N/NC(=O)c2ccoc2C)o1,-45.8,"0.651 µM [falling, partial curve, poor fit]","10.3 µM [falling, partial curve]"
N#C/C(=C\c1c[nH]c2ccc(Br)cc12)c1ccccn1,81.1,,"20.6 µM [rising, single point]"

Structure (SMILES),cell number change [%],AC50 [1],AC50 [2]
CCOC(=O)Cn1nc(C)n(-c2ccc(Cl)cc2)c1=O,12.4,"0.794 µM [falling, single point]",
CCc1cc(C(=O)N/N=C/c2ccc(O)cc2O)c2ccccc2n1,-27.6,"29.1 µM [falling, single point]",
O=c1oc(Nc2cccc(Cl)c2)nc2ccccc12,-37.1,,"4.61 µM [falling, full curve]"
CCOc1ccc(NC(=O)N2CCC(n3nnc4cc(C)ccc43)CC2)cc1,,"5.17 µM [rising, partial curve]","3.26 µM [rising, partial curve]"
OC(C#CCN1CCCC1)(c1ccccc1)c1cccc(F)c1 (stereo not given),9.28,,
CCc1cc2c(SCC(=O)c3cccs3)ncnc2s1,59.8,"0.651 µM [falling, single point]","29.1 µM [rising, single point]"
Cc1c(C(=O)Nc2c(F)cc(F)cc2Br)sc2ncn(CC(=O)N3CCCC3)c(=O)c12,-15.5,,
O=C(NCCn1cc(SCc2ccccc2F)c2ccccc21)c1c(F)cccc1F,-32.7,"8.2 µM [falling, partial curve]","4.61 µM [falling, full curve, poor fit]"
CCOC(=O)c1nn(-c2ccccc2)c2nc(Nc3ccccc3)cc(=O)n12,13.2,,"3.26 µM [rising, single point]"
CC(OC(=O)C1CCN(S(=O)(=O)c2ccc3c(c2)OCCO3)CC1)C(=O)N(C)c1ccccc1 (stereo not given),19.2,,"7.31 µM [rising, partial curve, poor fit]"
N#C/C(C(=O)c1ccccc1)=C1/SC=C(N)N1c1ccccc1,-88.1,"9.2 µM [falling, partial curve]","29.1 µM [falling, single point]"
CC(=O)N1CCN(C(=O)c2cccc(S(=O)(=O)Nc3ccc(C)cc3)c2)CC1,8.13,,
CC(C)(C)C(=O)CSc1nc(N)cc(=O)[nH]1,-48.5,"18.4 µM [falling, single point]","16.4 µM [falling, single point]"
Cc1ccc(S(=O)(=O)c2nc(S(C)(=O)=O)sc2N2CCC(O)CC2)cc1,-21.1,,
COc1cccc(OCc2nnc(SCc3cc(=O)[nH]c4ccccc34)o2)c1,,"3.26 µM [rising, partial curve, poor fit]",
Cc1cc(NC(=O)CSc2nc3c(sc4ccccc43)c(=O)n2CCc2ccccc2)n[nH]1,1.56,"0.517 µM [rising, full curve]","0.731 µM [rising, full curve]"
COc1ccccc1C1=NOC(CN2C(=O)c3ccccc3S2(=O)=O)C1 (stereo not given),52.4,"29.1 µM [rising, single point]","29.1 µM [rising, single point]"

# Two records picked at random from those above:
Structure (SMILES),cell number change [%],AC50 [1],AC50 [2]
CCOC(=O)c1nn(-c2ccccc2)c2nc(Nc3ccccc3)cc(=O)n12,13.2,,"3.26 µM [rising, single point]"
CCOC(=O)Cn1nc(C)n(-c2ccc(Cl)cc2)c1=O,12.4,"0.794 µM [falling, single point]",
